Reference: publication PMC11294477
No constants are given. Whether binding was seen depends on the method and setting. Binding seen in cells or lysates may run through a third protein. Some results given as binding are weak or reduced against the parent protein; the word gives no strength. For some of these results: Tags and fused reporters may be left off the sequences shown.

Protein sequences, listed by entry. Tags and fused reporters are not part of them. Lines headed by an entry give the natural chain unless they say otherwise; changes in a name come on top.
UniProt Q9UPV7: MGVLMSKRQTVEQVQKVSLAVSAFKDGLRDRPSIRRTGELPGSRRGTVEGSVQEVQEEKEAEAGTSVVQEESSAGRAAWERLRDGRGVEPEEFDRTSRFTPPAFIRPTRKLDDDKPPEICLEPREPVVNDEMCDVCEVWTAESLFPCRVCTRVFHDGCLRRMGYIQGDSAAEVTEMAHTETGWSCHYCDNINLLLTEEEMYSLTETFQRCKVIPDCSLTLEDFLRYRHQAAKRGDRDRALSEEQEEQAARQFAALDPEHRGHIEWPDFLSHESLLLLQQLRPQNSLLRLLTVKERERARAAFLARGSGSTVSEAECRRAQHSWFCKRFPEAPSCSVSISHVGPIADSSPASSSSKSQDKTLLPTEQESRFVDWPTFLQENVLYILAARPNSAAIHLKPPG
UniProt P63096: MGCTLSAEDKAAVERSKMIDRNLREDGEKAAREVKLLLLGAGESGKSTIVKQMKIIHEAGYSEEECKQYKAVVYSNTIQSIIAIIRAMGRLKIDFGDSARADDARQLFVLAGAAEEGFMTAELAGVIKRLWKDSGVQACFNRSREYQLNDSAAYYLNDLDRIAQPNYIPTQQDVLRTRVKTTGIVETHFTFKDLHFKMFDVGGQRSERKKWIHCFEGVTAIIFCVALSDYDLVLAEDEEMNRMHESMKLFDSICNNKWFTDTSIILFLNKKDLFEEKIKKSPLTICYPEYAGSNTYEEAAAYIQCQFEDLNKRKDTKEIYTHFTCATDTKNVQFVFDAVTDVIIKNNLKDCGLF
UniProt P50148: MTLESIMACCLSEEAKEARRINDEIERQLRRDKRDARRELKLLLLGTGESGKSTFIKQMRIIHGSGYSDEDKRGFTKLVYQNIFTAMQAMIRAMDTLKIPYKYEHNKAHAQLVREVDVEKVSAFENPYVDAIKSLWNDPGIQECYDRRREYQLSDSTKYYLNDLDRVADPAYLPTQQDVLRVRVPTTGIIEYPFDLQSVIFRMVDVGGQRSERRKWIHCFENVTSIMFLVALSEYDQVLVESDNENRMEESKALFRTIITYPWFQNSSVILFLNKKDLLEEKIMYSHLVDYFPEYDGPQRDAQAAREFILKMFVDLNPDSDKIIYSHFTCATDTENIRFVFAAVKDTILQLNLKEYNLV

Experiments:
GST-tagged GINIP protein = GST-tagged GINIP protein (UniProt Q9UPV7); assay: pull-down; HUVECs expressing GluGlu-tagged Gα (Gq together with Ric8A), ± FSS (also after PECAM-1 or LPHN2 siRNA), lysed in 10 mM Tris-HCl pH 7.5, 150 mM NaCl, 1% Triton X-100, 5 mM DTT with 2 µg/ml GST-GINIP or GST-GRK2N; glutathione beads 10 min at 4 °C; western blot; only the target purified
LPHN2-GFP = biological target: T1, LPHN2-GFP (UniProt O95490); assay: co-IP; LPHN2-GFP with Gα proteins containing internal GluGlu epitope tags
T1 sequence: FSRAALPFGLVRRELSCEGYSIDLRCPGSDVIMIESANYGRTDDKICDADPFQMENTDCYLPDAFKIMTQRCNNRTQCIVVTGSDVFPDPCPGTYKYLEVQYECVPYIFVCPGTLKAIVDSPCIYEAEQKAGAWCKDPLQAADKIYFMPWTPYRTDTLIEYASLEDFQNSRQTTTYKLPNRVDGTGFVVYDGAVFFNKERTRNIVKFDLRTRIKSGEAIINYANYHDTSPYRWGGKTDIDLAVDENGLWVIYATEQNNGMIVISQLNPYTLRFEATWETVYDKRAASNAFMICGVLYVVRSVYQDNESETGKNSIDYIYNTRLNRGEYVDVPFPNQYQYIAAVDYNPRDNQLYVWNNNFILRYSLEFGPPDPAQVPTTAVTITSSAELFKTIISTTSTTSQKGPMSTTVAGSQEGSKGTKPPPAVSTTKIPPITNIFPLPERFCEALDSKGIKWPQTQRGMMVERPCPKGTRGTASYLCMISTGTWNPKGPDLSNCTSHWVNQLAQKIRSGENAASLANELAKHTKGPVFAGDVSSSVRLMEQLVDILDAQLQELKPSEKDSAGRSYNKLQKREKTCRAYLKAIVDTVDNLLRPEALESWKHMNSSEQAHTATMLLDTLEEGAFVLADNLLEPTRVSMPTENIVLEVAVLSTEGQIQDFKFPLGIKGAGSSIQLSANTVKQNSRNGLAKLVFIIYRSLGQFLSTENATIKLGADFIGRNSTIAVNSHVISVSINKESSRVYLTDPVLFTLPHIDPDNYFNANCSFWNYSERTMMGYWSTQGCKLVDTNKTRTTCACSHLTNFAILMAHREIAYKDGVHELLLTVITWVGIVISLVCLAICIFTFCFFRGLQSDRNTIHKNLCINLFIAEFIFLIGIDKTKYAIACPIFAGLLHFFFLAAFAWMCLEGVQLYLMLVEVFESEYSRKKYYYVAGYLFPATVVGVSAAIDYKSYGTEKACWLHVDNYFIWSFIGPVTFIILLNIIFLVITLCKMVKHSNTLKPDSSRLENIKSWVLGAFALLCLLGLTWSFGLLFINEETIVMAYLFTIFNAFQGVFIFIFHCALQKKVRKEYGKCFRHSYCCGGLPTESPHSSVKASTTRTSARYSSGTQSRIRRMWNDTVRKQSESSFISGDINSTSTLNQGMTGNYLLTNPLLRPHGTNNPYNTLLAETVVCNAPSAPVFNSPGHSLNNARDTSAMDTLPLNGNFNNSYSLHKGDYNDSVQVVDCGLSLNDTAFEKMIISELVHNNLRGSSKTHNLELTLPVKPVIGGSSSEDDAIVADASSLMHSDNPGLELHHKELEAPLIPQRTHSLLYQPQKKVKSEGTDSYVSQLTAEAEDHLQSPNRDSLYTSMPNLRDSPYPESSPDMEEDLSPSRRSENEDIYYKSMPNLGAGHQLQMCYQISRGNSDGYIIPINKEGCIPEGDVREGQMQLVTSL

| binding (GST-tagged GINIP protein) | binding (LPHN2-GFP) | Substance |
| --- | --- | --- |
| binds | binds | GluGlu-tagged Gi1(Q306K) (from UniProt P63096 1-354) |
| – | no binding | GluGlu-tagged wild-type Gi1 (from UniProt P63096 1-354) |
| – | binds | GluGlu-tagged Gq (from UniProt P50148 1-359) |
